Several values for one entry are separate records, joined by “and”; a condition that tells them apart may be missing. Equal entries are not always repeated. Numbered stars: 1 amine (or outer) side, 2 acyl side, 3 side chain; on linkers, the order of the positions; unused ones are H or OH. Bridge positions count the residues as written; N and C are the ends. Square brackets hold non-standard residues; d marks the D form. Peptide text beside a SMILES is read from it. * marks the point of attachment. X4 = CC[C@H](C)[C@@H](N[*:1])[C@@H](O)CC(=O)O[C@@H](C(C)C)[C@H](O)[C@H](C)C(=O)[*:2]; X2 = CC[C@H](C)[C@@H](N[*:1])[C@@H](O)CC(=O)O[C@@H](C(=O)[C@H](C)C(=O)[*:2])C(C)C; X1 = CC[C@H](C)[C@@H](N[*:1])[C@@H](O)CC(=O)O[C@H](C(=O)[C@H](C)C(=O)[*:2])C(C)C; X3 = CC[C@H](C)[C@H](N[*:1])[C@@H](O)CC(=O)O[C@H](C(=O)[C@H](C)C(=O)[*:2])C(C)C; X7 = CCC(C)C(N[*:1])C(O)CC(=O)OC(C(=O)C(C)C(=O)[*:2])C(C)C; NMeY = CN[CH](Cc1ccc(O)cc1)C(=O)O; Stearoyl = CCCCCCCCCCCCCCCCCC(=O)*; aThr = C[C@H](O)[C@H](N)C(=O)O; NMeL = CN[CH](CC(C)C)C(=O)O; dNMeL = CN[C@H](CC(C)C)C(=O)O; pGlu = O=C1CC[C@@H](C(=O)O)N1; Isobutyryl = CC(C)C(=O)*; Pyruvoyl = CC(=O)C(=O)*; Cbz = O=C(OCc1ccccc1)*; Hexanoyl = CCCCCC(=O)*; Lac = C[C@H](O)C(=O)O; Propionyl = CCC(=O)*; Butyryl = CCCC(=O)*; For = O=C*
Assays:
[1] = test system: concanavalin A-induced lymphoblasts (Con A splenocytes); test: Lymphoblast viability (LbV) assay; conditions: therapeutic index
[2] = test system: Balb/c splenocytes (resting lymphocytes); test: Lymphocyte viability (LcV) assay; assay type: cell-based, murine; conditions: therapeutic index
Protocol: Forty two (42) didemnin compounds (see Table 1) were evaluated for cytotoxicity to one of the lymphocyte populations in the MLR (i.e., Balb/c splenocytes). The purpose of the lymphocyte viability assay (LcV) is to measure metabolic activity in lymphocytes after they have been exposed to the compounds for the duration of an under conditions equivalent to the MLR. The inverse of the data yields cytotoxicity information about the compounds on murine lymphocytes. The rationale of using resting cells, in this case unstimulated lymphocytes, to measure cytotoxicity has a strategic importance. In the MLR the heterogenous cell populations are predominantly resting cells when the assay begins.
Test compounds were prepared in two sets as described above. Splenocytes were prepared as described previously from one murine strain (Balb/c), and a volume of 200 μL of the cell suspension was added to one set of test compounds and control wells.
Assay plates were incubated as in the MLR and then pulsed overnight 75 μL per well MTT-thiazolyl blue solution (150 μg). The plates were decanted and the resulting insoluble formazan crystals were dissolved in 200 μL of isopropyl alcohol. Absorbance at 570 nm was measured.
The LcV data were calculated as a percentage of basal metabolic activity, or percent viability, relative to BALB/c control, and an LC50 value was interpolated for each test compound.

Molecule	ratio LbV (LC50)/MLR (IC50) [1]	ratio LcV (LC50)/MLR (IC50) [2]
CCCCCC(=O)N(C)[C@H](CC(C)C)C(=O)N[C@@H]1C(=O)N[C@H]([C@@H](C)CC)[C@@H](O)CC(=O)O[C@@H](C(C)C)C(=O)[C@H](C)C(=O)N[C@@H](CC(C)C)C(=O)N2CCC[C@H]2C(=O)N(C)[C@@H](Cc2ccc(OC)cc2)C(=O)O[C@@H]1C [Compound 22, N^α -Hexanoyldidemnin A] (Hexanoyl-[dNMeL]T[X1]LP[NMeY](Me); ester 2-C)	5	> 460,000
CC[C@H](C)[C@H]1NC(=O)[C@@H](NC(=O)[C@@H](CC(C)C)N(C)C(=O)[C@@H]2CCCN2C(=O)[C@H](C)OC(=O)[C@H](CCC(N)=O)NC(=O)[C@H](CCC(N)=O)NC(=O)[C@H](CCC(N)=O)NC(=O)[C@@H]2CCC(=O)N2)[C@@H](C)OC(=O)[C@H](Cc2ccc(OC)cc2)N(C)C(=O)[C@@H]2CCCN2C(=O)[C@H](CC(C)C)NC(=O)[C@@H](C)C(=O)[C@H](C(C)C)OC(=O)C[C@@H]1O [Compound 40, Didemnin D] ([pGlu]QQQ[Lac]P[dNMeL]T[X1]LP[NMeY](Me); ester 8-C)	7	> 50,000
CCC(=O)N(C)[C@H](CC(C)C)C(=O)N[C@@H]1C(=O)N[C@H]([C@@H](C)CC)[C@@H](O)CC(=O)O[C@@H](C(C)C)C(=O)[C@H](C)C(=O)N[C@@H](CC(C)C)C(=O)N2CCC[C@H]2C(=O)N(C)[C@@H](Cc2ccc(OC)cc2)C(=O)O[C@@H]1C [Compound 19, N^α -Propionyldidemnin A] (Propionyl-[dNMeL]T[X1]LP[NMeY](Me); ester 2-C)	< 1	18.000
CC[C@H](C)[C@H]1NC(=O)[C@@H](NC(=O)[C@@H](CC(C)C)N(C)C(=O)[C@@H]2CCCN2C(=O)[C@H](C)OC(=O)[C@H](CCC(N)=O)NC(=O)[C@@H]2CCC(=O)N2)[C@@H](C)OC(=O)[C@H](Cc2ccc(OC)cc2)N(C)C(=O)[C@@H]2CCCN2C(=O)[C@H](CC(C)C)NC(=O)[C@@H](C)C(=O)[C@H](C(C)C)OC(=O)C[C@@H]1O [Compound 38, Didemnin M] ([pGlu]Q[Lac]P[dNMeL]T[X1]LP[NMeY](Me); ester 6-C)	326	> 10,000,000
CC[C@H](C)[C@H]1NC(=O)[C@@H](NC(=O)[C@@H](CC(C)C)NC)[C@@H](C)OC(=O)[C@H](Cc2ccc(OC)cc2)N(C)C(=O)[C@@H]2CCCN2C(=O)[C@H](CC(C)C)NC(=O)[C@@H](C)C(=O)[C@H](C(C)C)OC(=O)C[C@@H]1OC(C)=O [Compound 7, O-Acetyldidemnin A]	1	100
CCCC(=O)N(C)C(CC(C)C)C(=O)NC1C(=O)NC(C(C)CC)C(O)CC(=O)OC(C(C)C)C(=O)C(C)C(=O)NC(CC(C)C)C(=O)N2CCCC2C(=O)N(C)C(Cc2ccc(OC)cc2)C(=O)OC1C (stereo not drawn) [Compound 20, N^α -n-Butyryldidemnin A] (Butyryl-[NMeL]T[X7]LP[NMeY](Me); ester 2-C; configuration not given here)	< 1	300
CC[C@H](C)[C@H]1NC(=O)[C@@H](NC(=O)[C@@H](CC(C)C)N(C)C(=O)[C@@H]2CCCN2C(=O)[C@H](C)OC(=O)[C@H](CCC(N)=O)NC(=O)[C@H](CCC(N)=O)NC(=O)[C@@H]2CCC(=O)N2)[C@@H](C)OC(=O)[C@H](Cc2ccc(OC)cc2)N(C)C(=O)[C@@H]2CCCN2C(=O)[C@H](CC(C)C)NC(=O)[C@@H](C)C(=O)[C@H](C(C)C)OC(=O)C[C@@H]1O [Compound 39, Didemnin E] ([pGlu]QQ[Lac]P[dNMeL]T[X1]LP[NMeY](Me); ester 7-C)	169	> 800,000
CC[C@H](C)[C@H]1NC(=O)[C@@H](NC(=O)[C@@H](CC(C)C)N(C)C(=O)[C@@H]2CCCN2C(=O)C(C)O)[C@@H](C)OC(=O)[C@H](Cc2ccc(OC)cc2)N(C)C(=O)[C@@H]2CCCN2C(=O)[C@H](CC(C)C)NC(=O)[C@@H](C)C(=O)[C@H](C(C)C)OC(=O)C[C@@H]1O (stereo partly shown) [Compound 1, didemnin B]	1	15,000
CC[C@H](C)[C@H]1NC(=O)[C@@H](NC(=O)[C@@H](CC(C)C)N(C)C(C)=O)[C@@H](C)OC(=O)[C@H](Cc2ccc(OC)cc2)N(C)C(=O)[C@@H]2CCCN2C(=O)[C@H](CC(C)C)NC(=O)[C@@H](C)C(=O)[C@H](C(C)C)OC(=O)C[C@@H]1O [Compound 18, N^α -Acetyldidemnin A] (Ac-[dNMeL]T[X1]LP[NMeY](Me); ester 2-C)	14	> 370,000
CC[C@H](C)[C@H]1NC(=O)[C@@H](NC(=O)[C@@H](CC(C)C)N(C)C(=O)[C@@H]2CCCN2C(=O)[C@H](C)OC(=O)[C@@H]2CCC(=O)N2)[C@@H](C)OC(=O)[C@H](Cc2ccc(OC)cc2)N(C)C(=O)[C@@H]2CCCN2C(=O)[C@H](CC(C)C)NC(=O)[C@@H](C)C(=O)[C@H](C(C)C)OC(=O)C[C@@H]1O [Compound 37, O-Pyroglutamyldidemnin B] ([pGlu][Lac]P[dNMeL]T[X1]LP[NMeY](Me); ester 5-C)	15	> 1,500,000 and 1,500,000
CC[C@H](C)[C@H]1NC(=O)[C@@H](NC(=O)[C@@H](CC(C)C)N(C)C(=O)[C@@H]2CCCN2)[C@@H](C)OC(=O)[C@H](Cc2ccc(OC)cc2)N(C)C(=O)[C@@H]2CCCN2C(=O)[C@H](CC(C)C)NC(=O)[C@@H](C)C(=O)[C@H](C(C)C)OC(=O)C[C@@H]1O [Compound 28, N^α -(L-Pro)Didemnin A] (H-P[dNMeL]T[X1]LP[NMeY](Me); ester 3-C)	5	> 10,000
CC[C@H](C)[C@H]1NC(=O)[C@@H](NC(=O)[C@@H](CC(C)C)N(C)C(=O)[C@@H]2CCCN2C(=O)C(C)=O)[C@@H](C)OC(=O)[C@H](Cc2ccc(OC)cc2)N(C)C(=O)[C@@H]2CCCN2C(=O)[C@H](CC(C)C)NC(=O)[C@@H](C)C(=O)[C@H](C(C)C)OC(=O)C[C@@H]1O [Compound 30, dehydrodidemnin B] (Pyruvoyl-P[dNMeL]T[X1]LP[NMeY](Me); ester 3-C)	< 1	6,800
CC[C@H](C)[C@H]1NC(=O)[C@@H](NC(=O)[C@@H](CC(C)C)NC)[C@@H](C)OC(=O)[C@H](Cc2ccc(OC)cc2)N(C)C(=O)[C@@H]2CCCN2C(=O)[C@H](CC(C)C)NC(=O)[C@@H](C)C(=O)[C@@H](C(C)C)OC(=O)C[C@@H]1O [Compound 12, Epididemnin A1] (H-[dNMeL]T[X2]LP[NMeY](Me); ester 2-C)	1	120
CC[C@H](C)[C@@H]1NC(=O)[C@@H](NC(=O)[C@H](CC(C)C)N(C)C=O)[C@H](C)OC(=O)[C@H](Cc2ccc(OC)cc2)N(C)C(=O)[C@@H]2CCCN2C(=O)[C@H](CC(C)C)NC(=O)[C@@H](C)C(=O)[C@H](C(C)C)OC(=O)C[C@@H]1O [Compound 26, Didemnin G] (For-[NMeL][aThr][X3]LP[NMeY](Me); ester 2-C)	2	> 14,000
CC[C@H](C)[C@H]1NC(=O)[C@@H](NC(=O)[C@@H](CC(C)C)NC)[C@@H](C)OC(=O)[C@H](Cc2ccc(OC)cc2)N(C)C(=O)[C@@H]2CCCN2C(=O)[C@H](CC(C)C)NC(=O)[C@@H](C)[C@@H](O)[C@H](C(C)C)OC(=O)C[C@@H]1O [Compound 10, [(2S,3R,4S)-H2 Hip^3]Didemnin A] (H-[dNMeL]T[X4]LP[NMeY](Me); ester 2-C)	16	350
Didemnin X [Compound 41]	6	> 2,000
CC[C@H](C)[C@@H]1NC(=O)[C@@H](NC(=O)[C@@H](CC(C)C)N(C)C(=O)OCc2ccccc2)[C@@H](C)OC(=O)[C@H](Cc2ccc(OC)cc2)N(C)C(=O)[C@@H]2CCCN2C(=O)[C@H](CC(C)C)NC(=O)[C@@H](C)C(=O)[C@H](C(C)C)OC(=O)C[C@@H]1O [Compound 6, Z-[(3S,4S,5S)-Ist^2]Didemnin A] (Cbz-[dNMeL]T[X3]LP[NMeY](Me); ester 2-C)	9	34
CC[C@H](C)[C@H]1NC(=O)[C@@H](NC(=O)[C@@H](CC(C)C)N(C)C(=O)[C@H]2CCCN2C(=O)C(C)C)[C@@H](C)OC(=O)[C@H](Cc2ccc(OC)cc2)N(C)C(=O)[C@@H]2CCCN2C(=O)[C@H](CC(C)C)NC(=O)[C@@H](C)C(=O)[C@H](C(C)C)OC(=O)C[C@@H]1O [Compound 34, [Isobutyryl^9, D-Pro^8] Didemnin B] (Isobutyryl-[dP][dNMeL]T[X1]LP[NMeY](Me); ester 3-C)	8	9,000
CCCCCCCCCCCCCCCCCC(=O)N(C)[C@H](CC(C)C)C(=O)N[C@@H]1C(=O)N[C@H]([C@@H](C)CC)[C@@H](O)CC(=O)O[C@@H](C(C)C)C(=O)[C@H](C)C(=O)N[C@@H](CC(C)C)C(=O)N2CCC[C@H]2C(=O)N(C)[C@@H](Cc2ccc(OC)cc2)C(=O)O[C@@H]1C [Compound 25, N^α -Octadecanoyldidemnin A] (Stearoyl-[dNMeL]T[X1]LP[NMeY](Me); ester 2-C)	1	> 2 and 2
[Phth-Ala^9 ]DB [Compound 8]	–	21,000
[Anhydro1st^2 ][Phth-Ala^9 ]DB [Compound 9]	–	33,000

— patent publication US6156724A (priority 1998, dated 2000)
